The series in a line: Solubility of marketed Drug Products: cyclodextrin to drug ratio. The settings on record: CD = sulfobutyl ether β-cyclodextrin.

In the case of `CC(=O)[C@H]1CC[C@H]2[C@@H]3CC[C@H]4C[C@H](O)CC[C@]4(C)[C@H]3C(=O)C[C@]12C` [Alphaxalone], the “CD/D (mol/mol)” value came out at 2.1 mol/mol.

Values taken from US10064954B2, “Polymer-cyclodextrin-lipid conjugates” (priority 2015, dated 2018).
